Experiments:
[1] = Sensory panel, Rice Krispies Treats; conditions: 0.75 g/serving, added to melted marshmallow, average of 12 panelists, scale −5 worse to +5 better than control
Procedure: Rice Krispies® Treats were used as the basis for incorporation of samples. According to the manufacturer, two treats are a serving. To prepare the samples, four batches of Rice Krispies® Treats were prepared for sensory testing as follows: • batch 1. Control (no GLCN, no NAG). • batch 2. GLCN (glucosamine hydrochloride derived from fungal biomass, Cargill, Minneapolis, Minn., Lot No. GP015-A). • batch 3. GLCN (glucosamine hydrochloride derived from shellfish, Batch 011107, Index # 9152, V.L. Clark Chemical Co., Inc., Union, Mo.). • batch 4. NAG (N-Acetyl-D-glucosamine, Lot # 27294A, Catalog # A-102-2, Ferro Pfanstiehl, Waukegan, Ill.).
According to the manufacturer's instructions, the recipe prepares 24 treats, so 4 batches were prepared from the recipe. Each batch consisted of six treats, or three servings. For servings which included GLCN or NAG, the serving (2 treats) had 0.75 g GLCN or NAG, or 0.375 g per treat added, which reflects a typical amount of GLCN or NAG delivered in dietary supplement products (0.25 g-1.5 g/serving). Therefore, except for the control batch, each batch had 2.25 g of GLCN or NAG added (0.375 g GLCN or NAG per treat×6 treats in batch=2.25 g GLCN or NAG per batch). GLCN or NAG was added to the melted marshmallow (melt marshmallow in a 1000 watt Amana Radarange microwave following manufacturer's instructions) prior to adding the Rice Krispies®, to evenly disperse the minor dry ingredients. Here, the samples were not heated to high temperatures.
Samples were tested within one day of preparing. Samples were tested blindly against a marked control, and a blind control was included. Panelists were asked to compare each sample to the control and comment. Panelists received the following instructions: • 1. Taste the control sample first. • 2. Compare all other samples to the control and write descriptors in the table (some potential comments might be whether or not the sample is hard, soft, brittle, crumbly, chewy, or grainy).
3. Numerically rate whether the samples are better or worse than the control, using this scale: […]

[2] = Sensory panel, Allsport sports drink; conditions: 0.75 g/serving, heated 195±4° F. 42±4 s, average of 12 panelists, scale −5 to +5 vs control
Excerpt: Allsport® sports drink (The Monarch Company, Atlanta, Ga.) was used as the basis for incorporation of samples. Citrus Slam flavor was chosen because of its light color, which may help panelists observe any color change. According to the manufacturer, a 20-ounce bottle of Allsport® contains 2.5 servings.
For servings that included GLCN or NAG, the serving had 0.75 g GLCN or NAG added, which reflects a typical amount of GLCN or NAG delivered in dietary supplement products. Therefore, 1.875 g (0.75 g/serving GLCN or NAG×2.5 servings/bottle=1.875 g GLCN or NAG/bottle) of GLCN or NAG was added to a 20-ounce bottle of Allsport®. After the bottles were prepared, the contents were heated to 195±4° F. for 42±4 seconds to simulate a pasteurization step. Samples were heated in a 1000 watt Amana Radarange microwave oven in foam cups for the same amount of time. For a room temperature beverage, 150 seconds of heating time was necessary, and for a refrigerated beverage, 180 seconds was required. The beverages were cooled in their original bottles, ¾ submerged in an ice water bath, and hand rotated to simulate flash cooling.
(§1) Samples were tested according to the methodology and instructions in Example 1.

[3] = Sensory panel, Jiffy corn muffins; conditions: 0.75 g/muffin, baked 400° F. 18 min, average of 12 panelists, scale −5 to +5 vs control
Excerpt: Jiffy® Corn Muffin Mix was used as the basis for incorporation of samples. Corn muffins were chosen due to their light color and mild taste. One serving is one muffin (as per the manufacturer).
Two boxes prepare 12 large muffins, a box was used to prepare 4 batches of samples (3 muffins per batch). For servings which included GLCN or NAG, the serving (1 muffin) had 0.75 g GLCN or NAG added, which reflects a typical amount of GLCN or NAG delivered in dietary supplement products. Except for the control, each batch had 2.25 g of NAG or GLCN added (0.75 g NAG or GLCN/muffin×3 muffins=2.25 g NAG or GLCN/batch). Each batch was prepared separately, so that the muffins were baked in the same places on the muffin pan. GLCN or NAG was added to the dry mix and mixed with a spoon. To this, 4 teaspoons of milk and ¼ of a beaten egg were added and the ingredients blended until slightly lumpy (each batch was mixed for the same amount of time). The mixtures were allowed to sit for three minutes, then evenly distributed into lightly-greased muffin cups. The muffins were baked at 400° F. for 18 minutes, then immediately removed from the muffin cup and stored in airtight containers.
as §1

[4] = Sensory panel, Fleischmann's Country White bread machine mix; conditions: 0.75 g/slice, baked in bread machine, average of 10 panelists, scale −5 to +5 vs control
Procedure: Fleischmann's® Bread Machine Mix was used as the basis for incorporation of samples. Country White Mix was chosen due to its light color and mild flavor. According to the manufacturer, 1 box make 8 servings (8 slices).
One box of bread mix was used for each batch. For servings which included GLCN or NAG, the serving (1 slice) had 0.75 g GLCN or NAG added, which reflects a typical amount of GLCN or NAG delivered in dietary supplement products. Except for the control, 6 g GLCN or NAG was added to each batch (0.75 g NAG or GLCN/slice×8 slices=6 g NAG or GLCN/batch). The recipe on the box was used. GLCN or NAG was added to the dry mix and mixed with a spoon, and the mixture added to a breadmaker. To this, 8 ounces of water (75° F.-85° F.), and 1 package of yeast (provided with the bread mix) was added. The bread machine was set to medium/normal crust color. The finished bread was immediately removed, cooled on a plate, and stored in airtight containers.
as §1

[5] = Sensory panel, Canny Kits bubble gum; conditions: 0.75 g/serving, microwaved with gum base, average of twelve panelists, scale −5 to +5 vs control
Excerpt: Canny Kits® Bubble Gum was be used as the basis for incorporation of samples. A serving of gum was estimated to be two pieces of gum.
According to the manufacturer's instructions, the mix makes over ¼ pound of gum. Assuming a piece of gum weighs at least 4 g, the mix can prepare approximately 30 pieces of gum. A gum kit was used to make two batches of gum. For servings which included GLCN or NAG, the serving (2 pieces of gum) had 0.75 g GLCN or NAG, or 0.375 g GLCN or NAG per piece of gum added, which reflects a typical amount of GLCN or NAG delivered in dietary supplement products. Except for the control batch, 5.625 g of GLCN or NAG was added (0.375 g active per piece of gum×15 pieces of gum in ½ a gum kit=5.625 g).
To make the gum, a plate was covered with waxed paper. Half of the powdered sugar provided was poured onto the waxed paper, and a well was formed in the pile of sugar to receive the melted gum and syrup. The gum-base pellets were melted by placing them in a plastic cup with the corn syrup, flavoring and GLCN or NAG (as applicable), then microwaving in a 1000 watt Amana Radarange microwave on high for 15 seconds. The heating step was repeated for two more 15 second intervals, stirring after each, until the gum base was completely melted. This melted mixture was slowly added to the powdered sugar, with constant mixing. The gum was worked into the powdered sugar until it no more sugar would absorb. When the gum was cool enough to handle, it was handled like bread dough and rolled flat, cooled, and cut into pieces for sensory testing.
as §1

[6] = Sensory panel, Lipton instant tea; conditions: 1.425 g/8 ounce serving, average of six panelists, scale −5 to +5
Procedure: Tea made from Lipton® instant tea mix was used as the basis for incorporation of samples. To prepare the tea, the following recipe was used: 2.69 g instant tea, 5.7 g GLCN or NAG (where applicable) then add water to one quart. Tea was prepared for sensory testing as follows:
Batch 1. Control Tea (no NAG or glucosamine)
Batch 2. Tea+glucosamine (pH 5-6) [GLCN from fungal biomass, see batch 2 Example 1]
Batch 3. Tea+NAG (pH 5-6) (N-Acetyl-D-glucosamine, Catalog # A-102-2, Ferro Pfanstiehl, Waukegan, Ill.)
Batch 4. Tea+glucosamine (pH 5-6) heated to 71° C. for 20 minutes
Batch 5. Tea+glucosamine heated (pH 5-6) to 90° C. for 20 seconds, flash cooled in ice water bath
Batch 6. Tea+glucosamine (pH 5-6) boiled on stove for 5 minutes, flash cooled in ice water bath
Batch 7. Tea+NAG (pH 5-6) heated to 71° C. for 20 minutes
Batch 8. Tea+NAG (pH 5-6) heated to 90° C. for 20 seconds, flash cooled in ice water bath
Batch 9. Tea+NAG (pH 5-6) boiled on stove for 5 minutes, flash cooled in ice water bath
The recipe prepared one quart, so each batch consisted of 32 ounces, or four 8-ounce servings. For servings that included GLCN or NAG, the serving (8 ounces) had 1.425 g GLCN or NAG, or 5.7 g GLCN or NAG per batch (1.425 g/serving×4 servings/batch=5.7 g/batch), which reflects a typical amount of GLCN or NAG delivered in dietary supplement products.
Samples were tested within one day of preparing. Samples were tested blindly against a marked control, and a blind control was included. Panelists were asked to compare each sample to the control and comment using the instructions and scale described in Example 1.

[7] = heated to 71° C. for 20 minutes
[8] = heated to 90° C. for 20 seconds

Cl.N[C@H]1C(O)O[C@H](CO)[C@@H](O)[C@@H]1O (some centres unmarked) [Shellfish GLCN, glucosamine hydrochloride]
Color [1]: 0 | Mouthfeel/texture ([1]; hydrochloride): 0 | Odor ([1]; hydrochloride): 0 | Taste ([1]; hydrochloride): −1.4 | Odor [2]: −0.3 | Color ([2]; hydrochloride): −0.1 | Mouthfeel/texture ([2]; hydrochloride): −0.2 | Taste ([2]; hydrochloride): −0.7 | Color ([3]; hydrochloride): −1.7 | Mouthfeel/texture ([3]; hydrochloride): −0.1 | Odor ([3]; hydrochloride): −0.4 | Taste ([3]; hydrochloride): −1.0 | Color [4]: −0.9 | Mouthfeel/texture ([4]; hydrochloride): −0.4 | Odor ([4]; hydrochloride): −0.2 | Taste ([4]; hydrochloride): −1.1 | Color ([5]; hydrochloride): −0.2 | Mouthfeel/texture ([5]; hydrochloride): −0.8 | Taste ([5]; hydrochloride): −1.8

Cl.N[C@H]1C(O)O[C@H](CO)[C@@H](O)[C@@H]1O (some centres unmarked) [Fungal GLCN, glucosamine hydrochloride]
Color [1]: 0 | Mouthfeel/texture ([1]; hydrochloride): −0.1 | Odor ([1]; hydrochloride): −0.3 | Taste ([1]; hydrochloride): −0.4 | Odor [2]: −0.3 | Color ([2]; hydrochloride): 0 | Mouthfeel/texture ([2]; hydrochloride): +0.1 | Taste ([2]; hydrochloride): −0.3 | Color ([3]; hydrochloride): −2.1 | Mouthfeel/texture ([3]; hydrochloride): −0.8 | Odor ([3]; hydrochloride): −0.3 | Taste ([3]; hydrochloride): −2.4 | Color [4]: −0.9 | Mouthfeel/texture ([4]; hydrochloride): −1.1 | Odor ([4]; hydrochloride): −0.3 | Taste ([4]; hydrochloride): −1.0 | Color ([5]; hydrochloride): −0.3 | Mouthfeel/texture ([5]; hydrochloride): −0.6 | Taste ([5]; hydrochloride): −2.9 | Taste ([6]; boiled 5 minutes): −2.2 | Taste [6, 7]: −3.7 | Taste [6, 8]: −4.2 | Taste ([6]; not heated): −3.2

CC(=O)N[C@H]1C(O)O[C@H](CO)[C@@H](O)[C@@H]1O (stereo partly drawn) [NAG, N-Acetyl-D-glucosamine]
Color [1]: 0 | Mouthfeel/texture [1]: +0.3 | Odor [1]: +0.3 | Taste [1]: +0.3 | Color [2]: −0.1 | Mouthfeel/texture [2]: 0 | Odor [2]: +0.1 | Taste [2]: −0.2 | Color [3]: +0.3 | Mouthfeel/texture [3]: −0.1 | Odor [3]: −0.2 | Taste [3]: −0.1 | Color [4]: −0.1 | Mouthfeel/texture [4]: 0 | Odor [4]: 0 | Taste [4]: −0.3 | Color [5]: +0.1 | Mouthfeel/texture [5]: −0.2 | Taste [5]: −0.3 | Taste ([6]; boiled 5 minutes): 0.2 | Taste [6, 7]: 1.3 | Taste [6, 8]: 1.2 | Taste ([6]; not heated): 2.0

Reference: US20060003965A1, “N-acetyl-d-glucosamine (nag) supplemented food products and beverages” (priority 2002, published 2006)
